Source: US5189025A, “Methods for the treatment of malignant disease in patients using citrulline containing amino acid solutions” (priority 1990, dated 1993)

Legend:
[1] = tested on: polyamine levels (erythrocyte and tumor); experiment: RBC and tumor polyamine levels in tumor-bearing rats infused with amino acid solutions (Example II, Table IV); format: in vivo, male Fisher 344 rats
[2] = tested on: methylcholanthrene-induced fibrosarcoma; settings: 450 mg ornithine per 100 ml amino acid formulation

Compound: NCCC[C@H](N)C(=O)O [ornithine]
- increase of putrescine levels within the tumors ([1]; Table IV summary): increased approximately three fold
- levels of all three polyamines in RBC's ([1]; Table IV summary): significantly increased
- blood polyamine levels ([1]; infusion alone, not in combination with essential amino acids, experimental tumor system): has not produced elevated blood polyamine levels
- toxicity of continuous infusion [2]: posed no toxicity problems
